For one substance, binding results are on record in article PMC9241928.

By UniProt entry, the sequences of proteins in these tests, tags left out.
UniProt P15682: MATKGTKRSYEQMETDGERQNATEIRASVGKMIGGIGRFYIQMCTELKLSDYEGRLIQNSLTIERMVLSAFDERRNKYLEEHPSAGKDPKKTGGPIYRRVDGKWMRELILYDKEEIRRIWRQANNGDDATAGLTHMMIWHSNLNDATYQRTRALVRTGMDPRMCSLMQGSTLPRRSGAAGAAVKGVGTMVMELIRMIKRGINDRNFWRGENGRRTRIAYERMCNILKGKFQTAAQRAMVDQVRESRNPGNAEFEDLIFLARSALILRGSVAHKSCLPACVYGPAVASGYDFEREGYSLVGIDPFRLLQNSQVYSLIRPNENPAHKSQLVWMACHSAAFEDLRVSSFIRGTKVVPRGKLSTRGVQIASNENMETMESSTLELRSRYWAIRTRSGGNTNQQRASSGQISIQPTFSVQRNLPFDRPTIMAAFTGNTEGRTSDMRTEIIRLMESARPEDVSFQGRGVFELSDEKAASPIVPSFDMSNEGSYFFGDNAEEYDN
UniProt P17844: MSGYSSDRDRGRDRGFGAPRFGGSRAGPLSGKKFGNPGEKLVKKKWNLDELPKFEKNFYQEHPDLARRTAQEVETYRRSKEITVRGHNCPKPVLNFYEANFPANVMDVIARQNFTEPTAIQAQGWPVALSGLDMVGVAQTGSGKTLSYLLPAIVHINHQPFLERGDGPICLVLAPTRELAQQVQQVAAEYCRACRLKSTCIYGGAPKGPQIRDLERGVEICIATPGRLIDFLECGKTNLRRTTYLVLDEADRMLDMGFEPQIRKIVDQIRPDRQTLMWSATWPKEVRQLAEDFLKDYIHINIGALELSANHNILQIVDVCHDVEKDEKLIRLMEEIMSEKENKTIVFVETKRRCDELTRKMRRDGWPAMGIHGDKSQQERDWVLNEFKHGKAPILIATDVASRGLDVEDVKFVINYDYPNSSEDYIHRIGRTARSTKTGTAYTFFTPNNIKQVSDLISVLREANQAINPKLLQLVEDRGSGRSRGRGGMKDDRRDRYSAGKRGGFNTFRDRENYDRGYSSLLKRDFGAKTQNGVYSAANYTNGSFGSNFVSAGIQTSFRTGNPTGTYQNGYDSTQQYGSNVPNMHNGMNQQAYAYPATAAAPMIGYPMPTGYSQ

These are yes or no findings as the source states them, for the method shown. In cells and extracts the contact can be indirect. Some results given as binding are weak or reduced against the parent protein; the word gives no strength.

This test addresses FLAG-NP of influenza virus A/WSN/1933 (H1N1) (influenza A virus A/WSN/1933 (H1N1)) (UniProt P15682). Put plainly: co-IP.

For the substance “MYC-DDX5 (human DEAD-box helicase 5, full length) (from UniProt P17844 1-614)”, the binding entry is recorded as “binds”.
